Measurements reported in PubChem BioAssay AID686938 (Drosophila RNAi Screening Center, 2013)
Test: 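Looking for CRAC channel components and the factors controlling them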 (primary screen). Cells: Drosophila S2R+ cells. Reagent: long dsRNA against Drosophila genes, about 0.25 µg dsRNA per well, roughly 10,000 cells. Time to read-out: 5 days of knock-down before the calcium assay. Challenge: thapsigargin (SERCA pump blocker) to empty calcium stores; entry signal taken 4 min after adding it. Read-out: 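Duplicate raw fluo-4 intensities per well from a plate reader, at rest and four minutes after thapsigargin emptied calcium stores; entry-to-rest ratio filled for only some wells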. Scale: calcium entry signal: higher = stronger calcium signal after store depletion; entry to resting ratio: higher = more calcium entry relative to resting level; resting calcium signal: higher = higher resting calcium signal. Active means: 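Hit if the duplicate-averaged plate z-score for entry over resting signal is under −3; wells with weak total dye signal (Fmax z < −2) or more than 5 off-targets removed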. Calls: active = strongly reduced calcium entry; inactive = no strong reduction.
In all, the deposit lists about 23,000 reagents; below is a random part of those that have a named target and a result. Of all reagents, 75 (0.33%) were called active. 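Raw plate signals without normalisation; calls rest on plate z-scores that were not deposited; ratio present for only 364 wells.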 The numbers tell different reagents against one gene apart. Not stated in the record: the dose of the treatment.

| calcium entry signal, replicate 1 (fluorescence units) | calcium entry signal, replicate 2 (fluorescence units) | entry to resting ratio | resting calcium signal, replicate 1 (fluorescence units) | resting calcium signal, replicate 2 (fluorescence units) | activity call | gene | reagent no. |
| --- | --- | --- | --- | --- | --- | --- | --- |
| 3.68e7 | 3.61e7 | – | 2.66e7 | 1.66e7 | inactive | dyl | 1 |
| 3.17e7 | 3.34e7 | – | 1.81e7 | 1.71e7 | inactive | dyl | 2 |
| 4.35e7 | 3.66e7 | – | 1.92e7 | 1.80e7 | inactive | thoc7 | 1 |
| 4.48e7 | – | – | 2.07e7 | – | inactive | CG5171 | 1 |
| 3.61e7 | 3.78e7 | – | 1.57e7 | 1.81e7 | inactive | CG40245 (retired record) | 1 |
| 4.40e7 | 4.00e7 | – | 2.11e7 | 1.86e7 | inactive | Nsun2 | 1 |
| 4.46e7 | – | – | 2.39e7 | – | inactive | PNUTS | 1 |
| 2.65e7 | 3.77e7 | – | 1.41e7 | 1.82e7 | inactive | PNUTS | 2 |
| 3.03e7 | 3.91e7 | – | 1.66e7 | 1.99e7 | inactive | CG1394 | 1 |
| 1.90e7 | 2.99e7 | – | 1.24e7 | 1.76e7 | inactive | Nf-YC | 1 |
| 4.11e7 | 3.78e7 | – | 1.94e7 | 1.66e7 | inactive | Nf-YC | 2 |
| 1.15e7 | 1.18e7 | – | 8.80e6 | 8.22e6 | inactive | RpL17 | 1 |
| 1.66e7 | 3.91e7 | – | 9.02e6 | 1.61e7 | inactive | rdgC | 1 |
| 2.13e7 | 3.13e7 | – | 9.51e6 | 1.36e7 | inactive | CG6790 | 1 |
| 3.78e7 | 4.73e7 | – | 1.87e7 | 1.62e7 | inactive | CG6893 | 1 |
| 3.88e7 | 3.69e7 | – | 1.92e7 | 1.74e7 | inactive | CG43707 | 1 |
| 1.92e7 | 2.71e7 | – | 1.03e7 | 1.25e7 | inactive | CG43707 | 2 |
| 4.53e7 | 3.59e7 | – | 2.33e7 | 1.81e7 | inactive | CG43707 | 3 |
| 3.34e7 | 3.66e7 | – | 1.59e7 | 1.84e7 | inactive | Tsf3 | 1 |
| 3.26e7 | 3.87e7 | – | 1.66e7 | 1.87e7 | inactive | CG7536 | 1 |
| 4.81e7 | 3.58e7 | – | 2.67e7 | 1.64e7 | inactive | baz | 1 |
| 3.49e7 | 3.45e7 | – | 1.59e7 | 1.74e7 | inactive | casp | 1 |
| 2.67e7 | 3.72e7 | – | 1.29e7 | 1.61e7 | inactive | Hexim | 1 |
| 2.87e7 | 2.74e7 | – | 1.54e7 | 1.24e7 | inactive | Polr3G | 1 |
| 3.67e7 | 4.41e7 | – | 1.82e7 | 1.74e7 | inactive | Mmp2 | 1 |
| 2.36e7 | 4.01e7 | – | 1.18e7 | 2.07e7 | inactive | Mmp2 | 2 |
| 4.02e7 | 3.78e7 | – | 1.80e7 | 1.72e7 | inactive | CG11777 | 1 |
| 2.41e7 | 4.35e7 | – | 1.25e7 | 2.28e7 | inactive | Sox21b | 1 |
| 5.66e7 | 5.92e7 | – | 2.63e7 | 2.77e7 | inactive | Sox21b | 2 |
| 5.13e7 | 3.40e7 | – | 2.68e7 | 1.69e7 | inactive | Sox21b | 3 |
| 5.99e7 | 2.17e7 | – | 2.67e7 | 1.00e7 | inactive | Sox21b | 4 |
| 4.40e7 | 4.39e7 | – | 2.16e7 | 1.98e7 | inactive | CG9849 | 1 |
| 3.19e7 | 2.74e7 | – | 1.54e7 | 1.22e7 | inactive | Ranbp21 | 1 |
| 4.33e7 | 3.55e7 | – | 2.97e7 | 1.77e7 | inactive | CG6409 | 1 |
| 3.59e7 | 3.80e7 | – | 1.70e7 | 2.00e7 | inactive | CG6409 | 2 |
| 4.43e7 | 4.37e7 | – | 2.17e7 | 2.09e7 | inactive | CG12011 | 1 |
| 3.62e7 | 4.41e7 | – | 1.89e7 | 2.11e7 | inactive | rho | 1 |
| 3.65e7 | 4.44e7 | – | 1.67e7 | 1.91e7 | inactive | spdi | 1 |
| 3.21e7 | 4.73e7 | 2 | 1.60e7 | 2.02e7 | inactive | spdi | 2 |
| 3.45e7 | 4.91e7 | – | 1.72e7 | 5.54e7 | inactive | Tmtc4 | 1 |

No new results follow: entries from further up.
| calcium entry signal, replicate 1 (fluorescence units) | calcium entry signal, replicate 2 (fluorescence units) | entry to resting ratio | resting calcium signal, replicate 1 (fluorescence units) | resting calcium signal, replicate 2 (fluorescence units) | activity call | gene | reagent no. |
| --- | --- | --- | --- | --- | --- | --- | --- |
| 2.13e7 | 3.13e7 | – | 9.51e6 | 1.36e7 | inactive | CG6790 | 1 |
| 3.78e7 | 4.73e7 | – | 1.87e7 | 1.62e7 | inactive | CG6893 | 1 |
